Results on two substances are retold here after paper PMC3534373.

Protein sequences, listed by entry. Tags and fused reporters are not part of them. Lines headed by an entry give the natural chain unless they say otherwise; changes in a name come on top. Chains listed by the source or under a name are the forms on record and can include a tag or linker. Residues count along the entry.
UniProt Q7Z434: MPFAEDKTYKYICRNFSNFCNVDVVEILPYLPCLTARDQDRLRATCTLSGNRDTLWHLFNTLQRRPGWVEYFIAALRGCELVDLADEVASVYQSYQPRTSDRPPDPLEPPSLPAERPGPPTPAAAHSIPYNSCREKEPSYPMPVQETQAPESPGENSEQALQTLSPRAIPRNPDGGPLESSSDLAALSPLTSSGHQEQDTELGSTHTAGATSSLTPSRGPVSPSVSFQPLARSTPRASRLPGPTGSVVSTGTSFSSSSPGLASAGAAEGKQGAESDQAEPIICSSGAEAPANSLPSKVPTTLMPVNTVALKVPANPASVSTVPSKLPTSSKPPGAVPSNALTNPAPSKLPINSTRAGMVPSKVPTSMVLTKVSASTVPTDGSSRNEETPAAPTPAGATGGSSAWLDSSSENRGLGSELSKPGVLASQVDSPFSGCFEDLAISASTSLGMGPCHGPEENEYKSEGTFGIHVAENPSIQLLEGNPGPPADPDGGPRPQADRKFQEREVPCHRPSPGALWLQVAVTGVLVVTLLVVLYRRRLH
MAVSΔCARD (Q7Z434, form named): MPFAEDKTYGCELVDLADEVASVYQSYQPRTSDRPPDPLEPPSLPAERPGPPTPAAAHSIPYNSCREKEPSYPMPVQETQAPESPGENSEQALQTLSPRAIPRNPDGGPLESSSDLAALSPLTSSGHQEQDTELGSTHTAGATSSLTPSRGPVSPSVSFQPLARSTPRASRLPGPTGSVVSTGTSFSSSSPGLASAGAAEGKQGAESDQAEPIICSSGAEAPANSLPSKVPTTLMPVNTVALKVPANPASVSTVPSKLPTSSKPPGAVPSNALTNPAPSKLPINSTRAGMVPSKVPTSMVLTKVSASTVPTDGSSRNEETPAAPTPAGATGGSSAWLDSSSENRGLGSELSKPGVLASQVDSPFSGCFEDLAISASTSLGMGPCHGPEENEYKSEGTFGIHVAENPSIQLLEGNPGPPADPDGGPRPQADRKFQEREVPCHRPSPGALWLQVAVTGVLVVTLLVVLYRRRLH
UniProt P10606, residues 32-129: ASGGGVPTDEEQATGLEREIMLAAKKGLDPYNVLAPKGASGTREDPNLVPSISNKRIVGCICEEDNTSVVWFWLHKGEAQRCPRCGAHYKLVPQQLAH

These are yes or no findings as the source states them, for the method shown. Binding seen in cells or lysates may run through a third protein. Some results given as binding are weak or reduced against the parent protein; the word gives no strength.

In assay [1] the target is endogenous MAVS (human (endogenous in HEK293)) (UniProt Q7Z434). Kind of assay: co-IP; endogenous proteins; cells lysed in 1% NP-40 buffer; anti-MAVS antibody or control IgG overnight at 4°C, protein A/G beads; immunoblot.
The target of a further assay is MAVSΔCARD (human) (UniProt Q7Z434). Kind of assay: co-IP; HEK293 cells transfected, lysed 24 h later in 0.5% Triton X-100 buffer (20 mM Tris pH 7.5, 150 mM NaCl, 1 mM EDTA, 10% glycerol); anti-Flag agarose beads 4 h or anti-Myc antibody overnight at 4°C with protein A/G beads; immunoblot; for MAVSΔTM also with co-expressed activated MAVS (Figure S10B). Background: Immunoblotting shows a protein as a band on a membrane.

The target of a further assay is Flag-MAVS (human) (UniProt Q7Z434). The description is as above.

With “endogenous COX5B (from UniProt P10606 32-129)”, the binding result in assay [1] is reported as “binds”. For “epitope-tagged COX5B (from UniProt P10606 32-129)”, the binding result is given as “no binding” with MAVSΔCARD (human) and “binds” in the assay with Flag-MAVS (human).
